This assay concerns P388 leukemia ip, CD2F1 mice, survival T/C. Put plainly: NCI In Vivo Anticancer Drug Screen. Data for tumor model P388 Leukemia (intraperitoneal) in CD2F1 (CDF1) mice. The settings on record: T/C endpoint: median survival time, higher T/C = longer survival.
The mark [1] stands for this setting: dose: 200.0 mg/kg/injection, schedule: Q01DX001 (ip), vehicle: Klucel (hydroxypropylcellulose) (HPC).
[2] abbreviates: dose: 100.0 mg/kg/injection, schedule: Q01DX005 (ip), vehicle: saline.
The mark [3] stands for this setting: dose: 200.0 mg/kg/injection, schedule: Q01DX005 (ip), vehicle: saline.
Where [4] appears, read: dose: 200.0 mg/kg/injection, schedule: Q01DX009 (ip), vehicle: saline with Tween-80.
The mark [5] stands for this setting: dose: 25.0 mg/kg/injection, schedule: Q01DX009 (ip), vehicle: saline with Tween-80.
Where [6] appears, read: dose: 200.0 mg/kg/injection, schedule: Q01DX009 (ip), vehicle: saline.
Setting [7] is: dose: 200.0 mg/kg/injection, schedule: Q01DX005 (ip), vehicle: Klucel (hydroxypropylcellulose) (HPC).
Where [8] appears, read: dose: 50.0 mg/kg/injection, schedule: Q01DX009 (ip), vehicle: saline.
Where [9] appears, read: dose: 240.0 mg/kg/injection, schedule: Q01DX005 (ip), vehicle: saline with Tween-80.
Setting [10] is: dose: 120.0 mg/kg/injection, schedule: Q01DX005 (ip), vehicle: saline with Tween-80.

The list is a part of this screen's results and no random one: it is rich in T/C values a quarter to a half above the control, in often repeated tests (any T/C) and in doses without a T/C. Further doses and runs are listed elsewhere. T/C: endpoint of the treated group in % of that of the vehicle group. Some doses have a count of surviving animals in place of a T/C: the source files T/C as zero there, which appears to mark a toxic dose or a test without result, not a measured value. Some survivor counts are full or nearly so, which does not show that the dose was tolerated: the source hardly ever lists a survival T/C far under the control, and the zero likely stands for such cases as well. Survivors were counted at the toxicity check, usually on the fifth day, unless a day is given; later deaths do not show. Schedules are NCI's codes, taken here to give the interval after Q, in days (D) or hours (H), and the number of doses after X. Some entries hold several experiments; the results are listed from low to high. Where survival is the endpoint, this PubChem deposit counts one and a half times the control or more as active, and values a quarter to a half above the control carry no call in these data; other NCI protocols may use other cut-offs.

On to `CCCCOc1cccc2c(NCCCNCCCNc3c4ccccc4nc4c(OCCCC)cccc34)c3ccccc3nc12`, for which the survivor count runs as follows: (dose: 5.0 mg/kg/injection, schedule: Q01DX009 (ip), vehicle: other) 5 of 6; (dose: 10.0 mg/kg/injection, schedule: Q01DX009 (ip), vehicle: other) 3 of 6 and 5 of 6; (dose: 20.0 mg/kg/injection, schedule: Q01DX009 (ip), vehicle: other) 1 of 6; (dose: 40.0 mg/kg/injection, schedule: Q01DX009 (ip), vehicle: other) 0 of 6.

In the case of `O=[N+]([O-])C(Br)(CO)CCC(Br)(CO)[N+](=O)[O-]` (stereo not given), the survivor count is recorded as 0 of 6 (dose: 50.0 mg/kg/injection, schedule: Q01DX001 (ip), vehicle: Klucel (hydroxypropylcellulose) (HPC)); 0 of 6 (dose: 100.0 mg/kg/injection, schedule: Q01DX001 (ip), vehicle: Klucel (hydroxypropylcellulose) (HPC)); 0 of 6 under setting [1].

Take `O=S(=O)(O)C1=CC(=N/Br)/C=CC/1=N\Br`: the T/C is, setting by setting: (dose: 50.0 mg/kg/injection, schedule: Q01DX005 (ip), vehicle: saline) 127 % of control; under setting [2], 129 % of control; under setting [3], 127 % of control. In addition, where the note is “dose: 400.0 mg/kg/injection, schedule: Q01DX005 (ip), vehicle: saline”, the survivor count was 0 of 5 and 4 of 6.

For the compound `Cc1ccc2cccc(OC(=O)Nc3ccc(Cl)c(Cl)c3)c2n1`, under setting [4], the survivor count was 5 of 6.

Regarding `COC(CNCC(OC)OC)OC`, the survivor count is, setting by setting: (dose: 12.5 mg/kg/injection, schedule: Q01DX009 (ip), vehicle: water) 6 of 6; (dose: 25.0 mg/kg/injection, schedule: Q01DX009 (ip), vehicle: water) 6 of 6; (dose: 50.0 mg/kg/injection, schedule: Q01DX009 (ip), vehicle: water) 6 of 6; (dose: 200.0 mg/kg/injection, schedule: Q01DX009 (ip), vehicle: water) 6 of 6.

For `O=c1oc(-c2cc([N+](=O)[O-])cc([N+](=O)[O-])c2Cl)nc2ccccc12`, the T/C (dose: 50.0 mg/kg/injection, schedule: Q01DX009 (ip), vehicle: Klucel (hydroxypropylcellulose) (HPC)) was 127 % of control. Besides, the survivor count was 3 of 6 (dose: 100.0 mg/kg/injection, schedule: Q01DX009 (ip), vehicle: Klucel (hydroxypropylcellulose) (HPC)) and 1 of 6 (dose: 200.0 mg/kg/injection, schedule: Q01DX009 (ip), vehicle: Klucel (hydroxypropylcellulose) (HPC)).

`NC(Cc1ccc(O)cc1)C(=O)OC1CCCCC1` (stereo not given): under “dose: 100.0 mg/kg/injection, schedule: Q04DX003 (ip), vehicle: saline with Tween-80”, the survivor count is on record as 6 of 6.

On to `O=C(CI)N(O)c1ccccc1OCc1ccccc1`, for which the survivor count runs as follows: (dose: 100.0 mg/kg/injection, schedule: Q01DX001 (ip), vehicle: saline) 1 of 6; (dose: 200.0 mg/kg/injection, schedule: Q01DX001 (ip), vehicle: saline) 1 of 6; (dose: 400.0 mg/kg/injection, schedule: Q01DX001 (ip), vehicle: saline) 0 of 6.

Take `COC(=O)Nc1nc2cc(Cl)c(Cl)cc2[nH]1`: the T/C was 128 and 135 % of control (dose: 100.0 mg/kg/injection, schedule: Q01DX009 (ip), vehicle: saline with Tween-80); 135 and 138 % of control under setting [4]; 141 and 143 % of control (dose: 400.0 mg/kg/injection, schedule: Q01DX009 (ip), vehicle: saline with Tween-80); 141 % of control (dose: 600.0 mg/kg/injection, schedule: Q01DX009 (ip), vehicle: saline with Tween-80).

As to `C/C(=N\NC(=S)N1CCC1)c1ccccn1`, the survivor count under setting [5] was 3 of 6.

Take `COC(C(=O)C(O)C(C)O)C1CC2C=C3C=C(OC4CC(OC5CC(O)C(OC)C(C)O5)C(OC(C)=O)C(C)O4)C(C)C(=O)C3=C(O)C2=C(O)C1OC1CC(OC2CC(OC3CC(C)(O)C(OC(=O)C(C)C)C(C)O3)C(O)C(C)O2)C(O)C(C)O1` (stereo not given): the T/C is 140 % of control (dose: 2.0 micrograms/kg/injection, schedule: Q01DX010 (ip), vehicle: saline) and 140 % of control (dose: 32.0 micrograms/kg/injection, schedule: Q01DX010 (ip), vehicle: saline). Besides, the survivor count (dose: 64.0 micrograms/kg/injection, schedule: Q01DX010 (ip), vehicle: saline) was 6 of 6 and the survivor count (dose: 128.0 micrograms/kg/injection, schedule: Q01DX010 (ip), vehicle: saline) is recorded as 4 of 6.

With `O=C1CCC2(O)[C@@H]3Cc4ccc(O)c5c4[C@]2(CCN3Cc2ccoc2)C1O5` (stereo not given in full), the survivor count under setting [6] is recorded as 2 of 6.

On to `COc1ccccc1C(O)(c1ccccc1OC)C1(O)CCN(C)CC1`, for which the survivor count under setting [7] is recorded as 0 of 6.

As to `CN(C)S(=O)(=O)CCNC(=O)N(CCCl)N=O`, for the setting “dose: 5.0 mg/kg/injection, schedule: Q01DX005 (ip), vehicle: saline”, the T/C was 143 % of control.

Consider `Oc1cc2c(cc1O)[C@H]1c3ccc(O)c(O)c3OC[C@@]1(O)C2`, for which the T/C under setting [8] is 127 % of control.

With `Oc1cc(O)c(-c2c(O)cc(O)cc2O)c(O)c1` (tested in a mixture with another compound), the survivor count is, setting by setting: under setting [2], 2 of 6; under setting [3], 0 of 6.

With `COc1cccc2c1C(=O)c1c(O)c3c(c(O)c1C2=O)C[C@@](O)(/C(C)=N\NC=O)C[C@@H]3OC1CC(N)C(O)C(C)O1` (stereo not given in full), the T/C is 145 % of control (dose: 5.0 mg/kg/injection, schedule: Q01DX001 (ip), vehicle: saline); 145 % of control (dose: 13.3 mg/kg/injection, schedule: Q01DX009 (ip), vehicle: saline); 145 % of control (dose: 13.3 mg/kg/injection, schedule: Q04DX003 (ip), vehicle: saline); 145 % of control (dose: 61.7 mg/kg/injection, schedule: Q01DX001 (ip), vehicle: saline).

As to `CC(C)(C)N=O`, the survivor count (dose: 400.0 mg/kg/injection, schedule: Q01DX001 (ip), vehicle: saline with Tween-80) is 0 of 6.

`O=c1cccccc1[O][Sn]([O]c1cccccc1=O)([c]1ccccc1)[c]1ccccc1`: the T/C under setting [1] is 125 % of control.

As to `O=N[O-].O=N[O-].[NH2-].[NH2-].[NH2-].[NH2-].[Ni]`, the survivor count (dose: 25.0 mg/kg/injection, schedule: Q01DX009 (ip), vehicle: saline) is listed as 3 of 6; the survivor count under setting [8] is given as 3 of 6; the survivor count (dose: 100.0 mg/kg/injection, schedule: Q01DX009 (ip), vehicle: saline) is 0 of 6; the survivor count under setting [6] is 0 of 6.

`Cn1c(=O)c2[nH]c(Cc3ccc4c(c3)OCO4)nc2n(C)c1=O`: the survivor count (dose: 400.0 mg/kg/injection, schedule: Q01DX009 (ip), vehicle: Klucel (hydroxypropylcellulose) (HPC)) is 2 of 6.

On to `Nc1[nH]c(=O)ncc1-c1ccc(Cl)cc1`, for which, under setting [9], the survivor count is on record as 1 of 6.

Turning to `CN(C)CCNc1ccc(O)c2sc3ccccc3c(=O)c12`, the survivor count (dose: 400.0 mg/kg/injection, schedule: Q04DX003 (ip), vehicle: saline with Tween-80) is listed as 1 of 6.

With `Cc1cn(Cc2ccc(Cl)cc2Cl)c(C)n1`, the survivor count reads like this: under setting [10], 0 of 6; under setting [9], 0 of 6.

As to `Nc1cnccc1Nc1ccncc1`, the survivor count (dose: 200.0 mg/kg/injection, schedule: Q01DX001 (ip), vehicle: saline with Tween-80) is 3 of 6.

As to `NC(=O)/C=C/C(=O)c1c(Cl)cccc1Cl`, the survivor count reads like this: under setting [5], 4 of 6; (dose: 50.0 mg/kg/injection, schedule: Q01DX009 (ip), vehicle: saline with Tween-80) 0 of 6.

As to `O=C(O)CS(=O)(=O)N1CCOCC1`, the survivor count under setting [7] is reported as 6 of 6.

Take `CC1(C)C2CCC(CN=C(N)CSS(=O)(=O)O)C1C2` (stereo not given): the survivor count by setting is: (dose: 60.0 mg/kg/injection, schedule: Q01DX005 (ip), vehicle: saline with Tween-80) 1 of 6; under setting [10], 0 of 6; under setting [9], 0 of 6.

The values above are taken from PubChem BioAssay AID330 (DTP/NCI, 2004).
